Results: the supplement of paper PMC5355238
Where “and” joins values, the source holds several entries; their conditions need not be identical. Equal values may be shown once. Where a name gives a salt, the structure may show the parent alone. This is one part of the list. Most entries show no effect beyond the scatter of the controls.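 Reh is a human leukemia cell line; the read-out is the median γH2AX antibody signal in S-phase cells by flow cytometry, with the score counting standard deviations from the median difference of each paired set of plates. Scores above 2.5 were called candidate hits, while scores below -2 mark compounds that lowered the MK1775-induced damage.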

Each molecule was assayed on Reh (assay: Z' of S-phase gammaH2AX difference (drug + MK1775 minus drug alone) (Z-score); higher = stronger synergistic S-phase DNA damage with MK1775). Conditions: MK1775 concentration 400 nM; first compound 10 µM; 4 h.

SMILES | Z' of S-phase gammaH2AX difference (Z-score)
CC(COc1ccc(/C=C/c2ccccc2)cc1)[N+](C)(C)C (configuration not stated) + C=CCn1c(=O)c2cnc(Nc3ccc(N4CCN(C)CC4)cc3)nc2n1-c1cccc(C(C)(C)O)n1 [MK1775] | inactive: -1.14
O=C(N[C@@H](Cc1ccccc1)C(=O)CCl)OCc1ccccc1 [Z-L-Phe chloromethyl ketone] + C=CCn1c(=O)c2cnc(Nc3ccc(N4CCN(C)CC4)cc3)nc2n1-c1cccc(C(C)(C)O)n1 [MK1775] | inactive: -0.538
CC(C)(C)c1[nH]cnc1/C=c1\[nH]c(=O)/c(=C/c2ccccc2)[nH]c1=O [NPI-2358 (Plinabulin)] + C=CCn1c(=O)c2cnc(Nc3ccc(N4CCN(C)CC4)cc3)nc2n1-c1cccc(C(C)(C)O)n1 [MK1775] | inactive: -0.088
Cc1scc2c1N(C(=O)CN1CCN(C)CC1)c1ccccc1NC2=O [Telenzepine dihydrochloride] + C=CCn1c(=O)c2cnc(Nc3ccc(N4CCN(C)CC4)cc3)nc2n1-c1cccc(C(C)(C)O)n1 [MK1775] | inactive: 0.117
CN(C)CCC(c1ccc(Cl)cc1)c1ccccn1 (single isomer, unassigned; (+)) [(+)-Chlorpheniramine maleate] + C=CCn1c(=O)c2cnc(Nc3ccc(N4CCN(C)CC4)cc3)nc2n1-c1cccc(C(C)(C)O)n1 [MK1775] | inactive: 0.962
CO/N=C(\C(=O)N[C@@H]1C(=O)N2C(C(=O)O)=C(CSc3nc(=O)c(O)nn3C)CS[C@H]12)c1csc(N)n1 [Ceftriaxone sodium] + C=CCn1c(=O)c2cnc(Nc3ccc(N4CCN(C)CC4)cc3)nc2n1-c1cccc(C(C)(C)O)n1 [MK1775] | inactive: 0.778
COc1cccc(NC(=O)/C=C/c2ccc(Cl)cc2)c1 + C=CCn1c(=O)c2cnc(Nc3ccc(N4CCN(C)CC4)cc3)nc2n1-c1cccc(C(C)(C)O)n1 [MK1775] | inactive: 0.938
CCCCN1CCC(COC(=O)c2cc(Cl)c(N)c3c2OCCO3)CC1 + C=CCn1c(=O)c2cnc(Nc3ccc(N4CCN(C)CC4)cc3)nc2n1-c1cccc(C(C)(C)O)n1 [MK1775] | inactive: -0.263
Oc1ccccc1O [Pyrocatechol] + C=CCn1c(=O)c2cnc(Nc3ccc(N4CCN(C)CC4)cc3)nc2n1-c1cccc(C(C)(C)O)n1 [MK1775] | inactive: 0.565
FC(F)(F)c1ccccc1-n1ccnc1 [1-[2-(Trifluoromethyl)phenyl]imidazole] + C=CCn1c(=O)c2cnc(Nc3ccc(N4CCN(C)CC4)cc3)nc2n1-c1cccc(C(C)(C)O)n1 [MK1775] | inactive: -1.61
CCCCOC(=O)NS(=O)(=O)c1sc(CC(C)C)cc1-c1ccc(Cn2c(CC)nc3c(C)cc(C)nc32)cc1 + C=CCn1c(=O)c2cnc(Nc3ccc(N4CCN(C)CC4)cc3)nc2n1-c1cccc(C(C)(C)O)n1 [MK1775] | inactive: 0.109
CC(C)(C)NC[C@H](O)COc1nsnc1N1CCOCC1 [S(-)-Timolol maleate] + C=CCn1c(=O)c2cnc(Nc3ccc(N4CCN(C)CC4)cc3)nc2n1-c1cccc(C(C)(C)O)n1 [MK1775] | inactive: 0.468
C[C@]12CCC(=O)C=C1CC[C@@H]1[C@@H]2[C@@H](O)C[C@@]2(C)[C@H]1CC[C@]2(O)C(=O)COC(=O)CCC(=O)O [Hydrocortisone 21-hemisuccinate sodium] + C=CCn1c(=O)c2cnc(Nc3ccc(N4CCN(C)CC4)cc3)nc2n1-c1cccc(C(C)(C)O)n1 [MK1775] | inactive: -0.265
Cc1ccc(C(=O)Nc2ccc(CN3CCN(C)CC3)c(C(F)(F)F)c2)cc1C#Cc1cnc2cccnn12 + C=CCn1c(=O)c2cnc(Nc3ccc(N4CCN(C)CC4)cc3)nc2n1-c1cccc(C(C)(C)O)n1 [MK1775] | inactive: -1.08
O=C1CCC(c2ccc(-n3ccnc3)cc2)=NN1 [Imazodan] + C=CCn1c(=O)c2cnc(Nc3ccc(N4CCN(C)CC4)cc3)nc2n1-c1cccc(C(C)(C)O)n1 [MK1775] | inactive: 0.0462
CCNC(=O)N1CCN(CCCC(c2ccc(F)cc2)c2ccc(F)cc2)CC1 [Amperozide hydrochloride] + C=CCn1c(=O)c2cnc(Nc3ccc(N4CCN(C)CC4)cc3)nc2n1-c1cccc(C(C)(C)O)n1 [MK1775] | inactive: 0.331
Fc1ccc(C(OCCCc2cnc[nH]2)c2ccc(F)cc2)cc1 + C=CCn1c(=O)c2cnc(Nc3ccc(N4CCN(C)CC4)cc3)nc2n1-c1cccc(C(C)(C)O)n1 [MK1775] | inactive: 0.551
CCc1cccc(N(C)C(=N)Nc2cccc3ccccc23)c1 + C=CCn1c(=O)c2cnc(Nc3ccc(N4CCN(C)CC4)cc3)nc2n1-c1cccc(C(C)(C)O)n1 [MK1775] | inactive: -0.174
Nc1nc(F)nc2c1ncn2[C@@H]1O[C@H](CO)[C@@H](O)[C@@H]1O [Fludarabine (Fludara)] + C=CCn1c(=O)c2cnc(Nc3ccc(N4CCN(C)CC4)cc3)nc2n1-c1cccc(C(C)(C)O)n1 [MK1775] | active: 2.7

Reformatted as comma-separated lines: entries from further up.
SMILES,Z' of S-phase gammaH2AX difference (Z-score)
C[C@]12CCC(=O)C=C1CC[C@@H]1[C@@H]2[C@@H](O)C[C@@]2(C)[C@H]1CC[C@]2(O)C(=O)COC(=O)CCC(=O)O [Hydrocortisone 21-hemisuccinate sodium] + C=CCn1c(=O)c2cnc(Nc3ccc(N4CCN(C)CC4)cc3)nc2n1-c1cccc(C(C)(C)O)n1 [MK1775],inactive: -0.265
Cc1ccc(C(=O)Nc2ccc(CN3CCN(C)CC3)c(C(F)(F)F)c2)cc1C#Cc1cnc2cccnn12 + C=CCn1c(=O)c2cnc(Nc3ccc(N4CCN(C)CC4)cc3)nc2n1-c1cccc(C(C)(C)O)n1 [MK1775],inactive: -1.08

The listing continues:

SMILES | Z' of S-phase gammaH2AX difference (Z-score)
O=C(NCCS(=O)(=O)c1ccc(C(F)(F)F)cn1)c1ccc(Cl)cc1 + C=CCn1c(=O)c2cnc(Nc3ccc(N4CCN(C)CC4)cc3)nc2n1-c1cccc(C(C)(C)O)n1 [MK1775] | inactive: 0.36
CC(C)CC(=O)Nc1n[nH]c2c1CN(C(=O)C1CCN(C)CC1)C2(C)C + C=CCn1c(=O)c2cnc(Nc3ccc(N4CCN(C)CC4)cc3)nc2n1-c1cccc(C(C)(C)O)n1 [MK1775] | inactive: -0.979
CC(N)=O [Acetamide] + C=CCn1c(=O)c2cnc(Nc3ccc(N4CCN(C)CC4)cc3)nc2n1-c1cccc(C(C)(C)O)n1 [MK1775] | inactive: -0.398
CN1CC[C@H](c2c(O)cc(O)c3c(=O)cc(-c4ccccc4Cl)oc23)[C@H](O)C1 [Flavopiridol hydrochloride] + C=CCn1c(=O)c2cnc(Nc3ccc(N4CCN(C)CC4)cc3)nc2n1-c1cccc(C(C)(C)O)n1 [MK1775] | inactive: -1.29
Nc1nc(Cl)nc2c1ncn2[C@@H]1O[C@H](CO)[C@@H](O)[C@@H]1F [Clofarabine] + C=CCn1c(=O)c2cnc(Nc3ccc(N4CCN(C)CC4)cc3)nc2n1-c1cccc(C(C)(C)O)n1 [MK1775] | inactive: 0.684
O=C1CN2Cc3c(ccc(Cl)c3Cl)N=C2N1 [Anagrelide] + C=CCn1c(=O)c2cnc(Nc3ccc(N4CCN(C)CC4)cc3)nc2n1-c1cccc(C(C)(C)O)n1 [MK1775] | inactive: -0.0362
O=C1CN2Cc3c(ccc(Cl)c3Cl)N=C2N1 [Anagrelide hydrochloride] + C=CCn1c(=O)c2cnc(Nc3ccc(N4CCN(C)CC4)cc3)nc2n1-c1cccc(C(C)(C)O)n1 [MK1775] | inactive: 0.57
CN(C)Cc1c(C(=O)NCCOc2ccc(C(=O)NO)cc2)oc2ccccc12 + C=CCn1c(=O)c2cnc(Nc3ccc(N4CCN(C)CC4)cc3)nc2n1-c1cccc(C(C)(C)O)n1 [MK1775] | inactive: -0.0274
N=C(N)SCCc1cccc(CCSC(=N)N)c1 [1,3-PBIT dihydrobromide] + C=CCn1c(=O)c2cnc(Nc3ccc(N4CCN(C)CC4)cc3)nc2n1-c1cccc(C(C)(C)O)n1 [MK1775] | inactive: 1.08
O=c1cc(-c2ccc(O)cc2)oc2cc(O)cc(O)c12 [Apigenin] + C=CCn1c(=O)c2cnc(Nc3ccc(N4CCN(C)CC4)cc3)nc2n1-c1cccc(C(C)(C)O)n1 [MK1775] | inactive: -1.03
C[C@@H](N)[C@H]1CC[C@H](C(=O)Nc2ccncc2)CC1 + C=CCn1c(=O)c2cnc(Nc3ccc(N4CCN(C)CC4)cc3)nc2n1-c1cccc(C(C)(C)O)n1 [MK1775] | inactive: 0.0806 and inactive: 0.371
CN(C)CCN(Cc1cccs1)c1ccccn1 [Methapyrilene hydrochloride] + C=CCn1c(=O)c2cnc(Nc3ccc(N4CCN(C)CC4)cc3)nc2n1-c1cccc(C(C)(C)O)n1 [MK1775] | inactive: -0.306
N=C1Sc2ccccc2C2=NCCCN12 + C=CCn1c(=O)c2cnc(Nc3ccc(N4CCN(C)CC4)cc3)nc2n1-c1cccc(C(C)(C)O)n1 [MK1775] | inactive: -0.218
NC(=O)N1c2ccccc2C=Cc2ccccc21 [Carbamazepine] + C=CCn1c(=O)c2cnc(Nc3ccc(N4CCN(C)CC4)cc3)nc2n1-c1cccc(C(C)(C)O)n1 [MK1775] | inactive: -0.524
COc1cc2nc(N3CCN(C(=O)c4ccco4)CC3)nc(N)c2cc1OC [Prazosin hydrochloride] + C=CCn1c(=O)c2cnc(Nc3ccc(N4CCN(C)CC4)cc3)nc2n1-c1cccc(C(C)(C)O)n1 [MK1775] | inactive: 0.15
NCCS(=O)(=O)O [Taurine] + C=CCn1c(=O)c2cnc(Nc3ccc(N4CCN(C)CC4)cc3)nc2n1-c1cccc(C(C)(C)O)n1 [MK1775] | inactive: -0.00186
N#CC(C#N)=C(N)/C(C#N)=C/c1ccc(O)cc1 [Tyrphostin AG 112] + C=CCn1c(=O)c2cnc(Nc3ccc(N4CCN(C)CC4)cc3)nc2n1-c1cccc(C(C)(C)O)n1 [MK1775] | inactive: -0.337
COc1nc(C)nc(Cl)c1NC1=NCCN1 [Moxonidine hydrochloride] + C=CCn1c(=O)c2cnc(Nc3ccc(N4CCN(C)CC4)cc3)nc2n1-c1cccc(C(C)(C)O)n1 [MK1775] | inactive: 0.422
